# Test: Electrochemical switching (Switch: reversible photochromic/electrochromic conversion)
# Format: physicochemical
# Set-up: key: Y: “Switch” refers to the ability (yes or no) of the compound to be reversibly converted under photochromic and electrochromic conditions between a ring-open isomer and ring-closed isomer
# Details: reversibly converted under photochromic and electrochromic conditions
row,Structure (SMILES),Switch
1,"CC(C)(C)c1ccc(-c2oc3cc4c(cc3c2C2=C(c3c(-c5ccc(C(C)(C)C)cc5)oc5cc6c(cc35)OCO6)C(F)(F)C(F)(F)C2(F)F)OCO4)cc1 [S163, 7,7′-(perfluorocyclopent-1-ene-1,2-diyl)bis(6-(4-(tert-butyl)phenyl)-[1,3]dioxolo[4,5-f]benzofuran)]",Y
2,"COc1cc2oc(-c3ccc(C(C)(C)C)cc3)c(C3=C(c4c(-c5ccc(C(C)(C)C)cc5)oc5cc(OC)c(OC)cc45)C(F)(F)C(F)(F)C3(F)F)c2cc1OC [S164, 3,3′-(perfluorocyclopent-1-ene-1,2-diyl)bis(2-(4-(tert-butyl)phenyl)-5,6-dimethoxybenzofuran)]",Y
3,"CC(C)(C)c1ccc(-c2cc(C3=C(c4cc(-c5ccc(C(C)(C)C)s5)sc4-c4cccs4)C(F)(F)C(F)(F)C3(F)F)c(-c3cccs3)s2)s1 [S170, 4,4′-(perfluorocyclopent-1-ene-1,2-diyl)bis(5′-tert-butyl-5-(thiopheyl)-2,2′-bithiophene)]",Y

# — US10072023B2, “Diarylethene compounds and uses thereof” (SWITCH MATERIALS, INC., priority 2011, dated 2018)
